No constants are given. Whether binding was seen depends on the method and setting. Binding seen in cells or lysates may run through a third protein. Some results given as binding are weak or reduced against the parent protein; the word gives no strength.
What was measured:
[1] = target: V5-epitope-tagged PML IV (human) (UniProt P29590); experiment: co-IP; data not shown; as for V5-PML I, with a V5-epitope-tagged PML IV construct and myc-tagged PML Ib
[2] = target: V5-epitope-tagged PML I (human) (UniProt P29590); experiment: co-IP; HEK293 transiently co-transfected, lysed 48 h later in IP buffer (20 mM Tris pH 8.0, 400 mM NaCl, 1 mM EDTA, 1% Triton X-100, 10 mM NaF, 0.5% DOC); precipitated with anti-V5 and protein G-Sepharose, blotted with HRP-conjugated anti-myc

Amino acid sequences for entries named in this document (tags omitted). A change or cut given only in a name is not applied to a line headed by its entry. Chains listed by the source or under a name are the forms on record and can include a tag or linker.
UniProt P29590: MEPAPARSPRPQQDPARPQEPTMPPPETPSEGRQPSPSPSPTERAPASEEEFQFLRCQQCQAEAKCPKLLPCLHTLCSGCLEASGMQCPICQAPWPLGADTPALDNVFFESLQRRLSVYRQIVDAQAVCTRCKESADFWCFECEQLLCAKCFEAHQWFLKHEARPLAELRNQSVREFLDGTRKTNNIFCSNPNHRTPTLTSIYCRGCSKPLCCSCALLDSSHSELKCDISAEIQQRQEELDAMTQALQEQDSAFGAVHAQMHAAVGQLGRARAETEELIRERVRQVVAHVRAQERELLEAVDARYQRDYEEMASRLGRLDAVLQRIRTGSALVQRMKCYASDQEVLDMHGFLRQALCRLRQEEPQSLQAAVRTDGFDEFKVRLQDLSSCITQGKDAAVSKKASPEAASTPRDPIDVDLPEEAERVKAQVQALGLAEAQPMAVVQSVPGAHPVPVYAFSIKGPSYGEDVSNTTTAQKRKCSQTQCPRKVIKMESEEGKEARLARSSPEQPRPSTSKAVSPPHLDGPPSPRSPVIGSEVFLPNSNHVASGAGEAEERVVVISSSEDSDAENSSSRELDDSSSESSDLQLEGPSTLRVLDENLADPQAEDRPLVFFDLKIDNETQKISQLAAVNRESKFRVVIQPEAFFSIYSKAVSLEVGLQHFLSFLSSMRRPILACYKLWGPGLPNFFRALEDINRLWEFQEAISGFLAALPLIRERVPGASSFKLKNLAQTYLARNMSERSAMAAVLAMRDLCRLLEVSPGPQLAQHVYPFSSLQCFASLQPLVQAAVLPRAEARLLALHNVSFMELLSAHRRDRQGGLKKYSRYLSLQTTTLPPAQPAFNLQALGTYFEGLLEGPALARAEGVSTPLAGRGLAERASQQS
myc-epitope-tagged PML Ib (P29590-14, form named): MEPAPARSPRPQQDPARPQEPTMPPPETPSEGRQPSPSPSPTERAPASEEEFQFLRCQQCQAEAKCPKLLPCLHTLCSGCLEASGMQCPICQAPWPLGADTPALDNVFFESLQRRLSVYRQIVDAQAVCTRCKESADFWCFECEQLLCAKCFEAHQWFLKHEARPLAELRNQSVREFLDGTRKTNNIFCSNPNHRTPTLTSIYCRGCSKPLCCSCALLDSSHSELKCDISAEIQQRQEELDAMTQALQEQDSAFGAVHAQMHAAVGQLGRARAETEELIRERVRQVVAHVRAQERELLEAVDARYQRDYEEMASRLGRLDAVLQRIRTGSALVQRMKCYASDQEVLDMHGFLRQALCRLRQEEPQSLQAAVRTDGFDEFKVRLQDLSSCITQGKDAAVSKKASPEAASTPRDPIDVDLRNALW
V5-epitope-tagged PML IV (P29590, form named): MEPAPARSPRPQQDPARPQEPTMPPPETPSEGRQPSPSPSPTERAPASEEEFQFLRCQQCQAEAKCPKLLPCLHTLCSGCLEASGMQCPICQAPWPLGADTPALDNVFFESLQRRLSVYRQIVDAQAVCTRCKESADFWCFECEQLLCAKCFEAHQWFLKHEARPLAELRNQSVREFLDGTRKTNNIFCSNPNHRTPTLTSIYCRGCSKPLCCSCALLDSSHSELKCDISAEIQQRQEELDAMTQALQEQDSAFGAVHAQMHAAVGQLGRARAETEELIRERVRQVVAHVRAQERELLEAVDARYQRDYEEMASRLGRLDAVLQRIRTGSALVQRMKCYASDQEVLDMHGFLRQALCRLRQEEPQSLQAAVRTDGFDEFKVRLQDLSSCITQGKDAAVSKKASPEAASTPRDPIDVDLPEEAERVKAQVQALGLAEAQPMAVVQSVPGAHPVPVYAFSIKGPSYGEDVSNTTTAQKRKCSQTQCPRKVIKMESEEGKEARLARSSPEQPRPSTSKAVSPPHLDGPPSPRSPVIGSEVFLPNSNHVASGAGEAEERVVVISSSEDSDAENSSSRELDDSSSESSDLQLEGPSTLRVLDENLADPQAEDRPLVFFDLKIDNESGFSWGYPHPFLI

binding [1]: binds
binding [2]: binds
Substance: myc-epitope-tagged PML Ib (from UniProt P29590-14 1-423)

— paper PMC2386554
